From PubChem BioAssay AID540275 (National Center for Advancing Translational Sciences (NCATS), 2011)
About 620 (0.19%) of roughly 320,000 compounds were called active. This list was built around the results that the source calls inconclusive (neither active nor inactive); the mix of calls is not that of the screen. No stated cut-off is given here; in the data, active means activation above about 80%; inconclusive means between about 30% and that limit; inactive means weaker than that.

Amino acid sequences for entries named in this document (tags omitted).
UniProt Q8NER1, whole entry, looked up: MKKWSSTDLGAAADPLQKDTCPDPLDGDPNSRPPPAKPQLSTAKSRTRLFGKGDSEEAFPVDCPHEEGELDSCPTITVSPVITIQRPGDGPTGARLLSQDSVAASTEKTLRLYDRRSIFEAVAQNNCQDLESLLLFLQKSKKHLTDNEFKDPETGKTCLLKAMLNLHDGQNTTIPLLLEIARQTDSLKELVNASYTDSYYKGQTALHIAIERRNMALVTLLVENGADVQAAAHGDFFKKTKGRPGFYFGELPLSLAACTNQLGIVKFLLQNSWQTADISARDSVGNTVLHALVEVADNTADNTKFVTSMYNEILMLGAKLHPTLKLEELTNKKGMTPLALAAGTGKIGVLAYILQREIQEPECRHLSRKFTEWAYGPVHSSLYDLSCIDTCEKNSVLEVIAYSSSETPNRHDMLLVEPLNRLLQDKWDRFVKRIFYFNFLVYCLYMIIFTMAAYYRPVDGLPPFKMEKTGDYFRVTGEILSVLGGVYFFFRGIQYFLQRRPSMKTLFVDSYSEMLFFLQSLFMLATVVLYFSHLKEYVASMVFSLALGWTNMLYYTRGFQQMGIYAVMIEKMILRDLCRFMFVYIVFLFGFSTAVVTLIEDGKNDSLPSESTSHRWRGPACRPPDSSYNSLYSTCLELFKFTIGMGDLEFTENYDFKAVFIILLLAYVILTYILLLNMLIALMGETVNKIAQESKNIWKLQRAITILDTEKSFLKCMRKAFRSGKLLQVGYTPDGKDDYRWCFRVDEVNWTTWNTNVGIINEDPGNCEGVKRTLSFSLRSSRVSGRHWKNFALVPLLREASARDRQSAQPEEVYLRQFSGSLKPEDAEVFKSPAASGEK

biological target: Transient receptor potential cation channel subfamily V member 1 (Homo sapiens) (UniProt Q8NER1); test: HTS Assay for Compounds that Act as Agonists of the Vanilloid Receptor 1; details: TRPV1-expressing cells, Fluo-8 calcium influx, agonist mode; at 8.33 µM, active compounds read high; further: 0% is about no effect
How it was run: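 TRPV1-expressing cells were cultured overnight at 35.5C and loaded with Fluo-8 calcium dye for 40 to 90 min at room temperature. After a 10 s baseline, compound was added and calcium influx was read kinetically for 3 min (ex 480/em 520 nm).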

Compound | activation
Cc1cccc(NS(=O)(=O)c2ccc(C3CCCCC3)cc2)n1 | inconclusive: 38.4%
C=CCOc1ccc(Br)cc1/C=C1/SC(=Nc2ccc(C(=O)O)cc2)NC1=O | inconclusive: 55.2%
CCn1c(C)nc2cc(C(=O)N/N=C/c3cccc(OC)c3O)ccc21 | inactive: 0.755%
Cc1ccc(SCCNC(=S)Nc2cc(C)ccc2C)cc1 | inconclusive: 45.6%
COc1ccc(-c2csc3ncnc(N4CCN(c5ccccc5O)CC4)c23)cc1 | inconclusive: 30.9%
COc1ccc(Br)cc1CN(C)C(C)C(=O)Nc1cccc(C(C)=O)c1 (stereo unspecified) | inconclusive: 56.1%
COC(CNC(=O)CCc1c(C)nc2c(c(C)nn2-c2ccc(C)cc2)c1C)OC | active: 81.9%
COc1ccc(C[C@H]2CN3C(=NC[C@@H]3Cc3ccccc3)N2CCNC(=O)CCC2CCCCC2)cc1 | inactive: -1.38%
Cc1ccc(OCC(=O)NC(C)c2ccccc2)cc1C (stereo unspecified) | inconclusive: 43.4%
Cc1ccc(NC(=S)Nc2ccc3cn[nH]c3c2)cc1C | inconclusive: 38.1%
CC(C)N=C1SC(CC(=O)Nc2ccccc2)C(=O)N1C(C)C (stereo unspecified) | inconclusive: 37.6%
O=C(c1ccc(N2CCN(CCO)CC2)nc1)N1CCOCC1 | inactive: 2.65%
O=C(NCCc1csc(-c2ccccc2)n1)c1c(F)cccc1F | inactive: 20.1%
Cc1ccc(-n2ncc3c(N4CCCC(C)C4)ncnc32)c(C)c1 (stereo unspecified) | inconclusive: 30.6%
O=C(Nc1ccc(Cl)cc1)N1CCSCC1 | inconclusive: 73.9%
O=C(Nc1ccc(N2CCN(Cc3ccccc3F)CC2)cc1)c1ccc([N+](=O)[O-])o1 | inactive: 4.09%
Cc1c(C(=O)NCC2CCCO2)oc2ccccc12 (stereo unspecified) | inconclusive: 45.6%
Cc1ccc(C(=O)N/C(=C\c2cccs2)C(=O)NC2CCCCC2)cc1 | inconclusive: 35.4%
CC(C)CCNC(=O)c1ccc(-c2ccccc2)cc1 | inconclusive: 52.5%
O=c1c2ccccc2nc(SCCN2CCOCC2)n1CCc1ccccc1 | inconclusive: 43.8%
CCN1C(=O)c2ccccc2Sc2ccc(C(=O)NCCCN(CC(C)C)CC(C)C)cc21 | inactive: 0.898%
COc1ccc(NC(=S)NCc2ccc(F)cc2)cc1 | inactive: -3.89%
COc1cc(OC)c(OC)cc1CN1CCN(Cc2cccn2C)CC1 | inactive: 3.52%

Compound | activation
Cc1ccc(NC(=O)CN2C(=O)NC3(CCCc4ccccc43)C2=O)c(C)c1 (stereo unspecified) | inactive: 9.19%
CCCNC(=O)N1CCC(C(=O)c2cccc(F)c2)CC1 | inconclusive: 34.4%
COc1ccc(-c2cc(C(=O)N3CCCCCC3)c3cc(C)ccc3n2)cc1 | inconclusive: 49.7%
O=C(Nc1ccc([N+](=O)[O-])cc1)c1ccc(Cn2cc([N+](=O)[O-])cn2)cc1 | inconclusive: 34.5%
CCOC(=O)C1(CCc2ccccc2)CCN(C(=O)Cc2nonc2C)CC1 | inconclusive: 30.1%
Cc1cc(C(=O)Nc2ccc3ccccc3c2)oc1C | inconclusive: 56.8%
CCOC(=O)c1c(NC(=O)Nc2cccc(Cl)c2)sc(C)c1C | inconclusive: 42.5%
S=C(Nc1cccnc1)NC1CCCC1 | inconclusive: 53.8%
O=C(NCCc1ccc2c(c1)OCCO2)c1cc2ccccc2o1 | inconclusive: 49%
Cc1cc(S(=O)(=O)N(Cc2cccs2)Cc2ccccc2F)ccc1-n1cnnn1 | inconclusive: 33.5%
C=CCOc1ccc(/C=N/N2C(=O)C(CC(=O)Nc3ccc(F)cc3F)SC2=NC)cc1 (stereo unspecified) | inconclusive: 30.6%
O=C(NCCc1ccccc1)c1ccc(CS(=O)(=O)c2ccc(Br)cc2)o1 | inconclusive: 62.9%
Cc1ccc(-c2nn(-c3ccccc3)cc2C(=O)NCC2CCCO2)cc1 (stereo unspecified) | inconclusive: 47.1%
Cc1ccc2ncnc(Nc3ccc(C)c(C)c3)c2c1 | inconclusive: 73.9%
CCn1c(C)c(C(=O)O)c2cc(OC)c3ccccc3c21 | inactive: 8.68%
CCOc1cc(NC(=S)NCc2ccco2)c(OCC)cc1NC(=O)c1ccco1 | inconclusive: 36.1%
COc1cc(CN2CCN(c3cccc(C)c3C)CC2)cc(Br)c1O | inactive: 0.0717%
COCCNC(=O)c1ccc(NS(=O)(=O)c2cc(C)ccc2C)cc1 | inactive: -4.79%
COc1cccc(C(=O)Nc2ccc(N3CCCC3)cc2)c1 | inconclusive: 36.1%
COc1ccc(NC(=O)c2ccc3c(c2)OCO3)cc1 | inconclusive: 67.5%
CCn1c(SCC(=O)N2c3ccccc3CCc3ccccc32)nnc1-c1ccc(OC)cc1 | inconclusive: 33.6%
Cc1cc(C)c(S(=O)(=O)Nc2ccc3c(c2)CCC3)c(C)c1 | inconclusive: 32.7%
COC(=O)C(C)(C)ONC(=O)Nc1ccccc1[N+](=O)[O-] | inactive: 1.45%

Already shown: an excerpt of the list.
Compound | activation
COc1cc(OC)c(OC)cc1CN1CCN(Cc2cccn2C)CC1 | inactive: 3.52%
Cc1ccc(NC(=O)CN2C(=O)NC3(CCCc4ccccc43)C2=O)c(C)c1 (stereo unspecified) | inactive: 9.19%
CCCNC(=O)N1CCC(C(=O)c2cccc(F)c2)CC1 | inconclusive: 34.4%
COc1ccc(-c2cc(C(=O)N3CCCCCC3)c3cc(C)ccc3n2)cc1 | inconclusive: 49.7%
O=C(Nc1ccc([N+](=O)[O-])cc1)c1ccc(Cn2cc([N+](=O)[O-])cn2)cc1 | inconclusive: 34.5%
CCOC(=O)C1(CCc2ccccc2)CCN(C(=O)Cc2nonc2C)CC1 | inconclusive: 30.1%
Cc1cc(C(=O)Nc2ccc3ccccc3c2)oc1C | inconclusive: 56.8%
CCOC(=O)c1c(NC(=O)Nc2cccc(Cl)c2)sc(C)c1C | inconclusive: 42.5%
S=C(Nc1cccnc1)NC1CCCC1 | inconclusive: 53.8%
O=C(NCCc1ccc2c(c1)OCCO2)c1cc2ccccc2o1 | inconclusive: 49%
Cc1cc(S(=O)(=O)N(Cc2cccs2)Cc2ccccc2F)ccc1-n1cnnn1 | inconclusive: 33.5%
C=CCOc1ccc(/C=N/N2C(=O)C(CC(=O)Nc3ccc(F)cc3F)SC2=NC)cc1 (stereo unspecified) | inconclusive: 30.6%
O=C(NCCc1ccccc1)c1ccc(CS(=O)(=O)c2ccc(Br)cc2)o1 | inconclusive: 62.9%
Cc1ccc(-c2nn(-c3ccccc3)cc2C(=O)NCC2CCCO2)cc1 (stereo unspecified) | inconclusive: 47.1%
Cc1ccc2ncnc(Nc3ccc(C)c(C)c3)c2c1 | inconclusive: 73.9%
CCn1c(C)c(C(=O)O)c2cc(OC)c3ccccc3c21 | inactive: 8.68%
CCOc1cc(NC(=S)NCc2ccco2)c(OCC)cc1NC(=O)c1ccco1 | inconclusive: 36.1%
COc1cc(CN2CCN(c3cccc(C)c3C)CC2)cc(Br)c1O | inactive: 0.0717%
COCCNC(=O)c1ccc(NS(=O)(=O)c2cc(C)ccc2C)cc1 | inactive: -4.79%
COc1cccc(C(=O)Nc2ccc(N3CCCC3)cc2)c1 | inconclusive: 36.1%
COc1ccc(NC(=O)c2ccc3c(c2)OCO3)cc1 | inconclusive: 67.5%
CCn1c(SCC(=O)N2c3ccccc3CCc3ccccc32)nnc1-c1ccc(OC)cc1 | inconclusive: 33.6%
Cc1cc(C)c(S(=O)(=O)Nc2ccc3c(c2)CCC3)c(C)c1 | inconclusive: 32.7%

The list goes on.

Compound | activation
CC(C)c1ccc(NC2CCCN(C(=O)CCN3CCCC3=O)C2)cc1 (stereo unspecified) | inconclusive: 49.1%
Cc1sc2ncnc(N(C)Cc3ccco3)c2c1C | inactive: -0.979%
O=S(=O)(c1ccc(F)cc1)N1CCN(C(=S)NCc2ccco2)CC1 | inconclusive: 42.5%
CCOc1ncccc1C(=O)OCC(=O)N(CC(C)C)C1CCS(=O)(=O)C1 (stereo unspecified) | inactive: 1.35%
Cc1ccc(CSCC(=O)N2CCN(c3ccccc3)CC2)cc1 | inconclusive: 52.6%
O=C(Nc1ccc(Cl)c(S(=O)(=O)N2CCCCC2)c1)c1ccco1 | inconclusive: 36.6%
Cc1cc2nc(-c3ccc4c(c3)CCC4)ccn2n1 | inconclusive: 31.4%
OCCN1CCN(C(=S)NCCc2ccccc2)CC1 | inconclusive: 47.2%
c1ccc(COc2ccc(OCCCN3CCCCC3)cc2)cc1 | inactive: 6.18%
COc1ccc(C2NC(=S)NC3=C2N2CCC3CC2)cc1 (stereo unspecified) | inactive: -1.17%
CC1CCCN(C(=S)NCCc2ccccc2)C1 (stereo unspecified) | inconclusive: 55.5%
CCn1c(=S)ccc2ccc(OC)cc21 | inactive: 16.4%
COC(=O)CCC(=O)NNC(=O)CCC(=O)Nc1cccc(Cl)c1C | inactive: -0.171%
O=C(Nc1nncs1)C12CC3CC(CC(C3)C1)C2 | inactive: -0.12%
Cc1ccc(S(=O)(=O)CCC(O)c2ccc(Cl)cc2)cc1 (stereo unspecified) | inconclusive: 32.2%
O=C(NC(Cc1ccccc1)C(=O)O)NC12CC3CC(CC(C3)C1)C2 (stereo unspecified) | inactive: -1.51%
CCOC(=O)C1=C(c2ccccc2)NC(SCC)=C(C#N)C1c1cccnc1 (stereo unspecified) | inconclusive: 42.9%
NC(=O)[C@H](Cc1cc2ccccc2s1)NC(=O)[C@@H]1CC2(CC(c3cccc(NC(=O)[C@@H]4CCC(=O)N4)c3)=NO2)CN1C(=O)c1ccccc1 (stereo partly specified) | inactive: -2.39%
Cc1ccc(OCC(=O)Nc2ccc3c(c2)OCO3)cc1C | inconclusive: 64.4%
Cc1cc(NCc2ccccc2)n2ncc(-c3ccccc3)c2n1 | inactive: -0.113%
NS(=O)(=O)c1ccc(CCNC(=O)c2ccc3c(c2)N(Cc2ccccc2)CCS3)cc1 | inconclusive: 53.5%
CCc1ccc(NC(=O)c2cnc(SC)nc2C)cc1 | inconclusive: 31.6%
Cc1ccc(NC(=O)c2ccc(NCc3ccc(F)cc3)nc2)cc1 | inconclusive: 59.7%

Compound | activation
O=C(Nc1ccc2oc(-c3ccncc3)nc2c1)c1cccs1 | inconclusive: 37.8%
Cc1ccc(NC(=O)c2ccc3c(c2)OCCO3)cc1 | inconclusive: 75%
Cc1ccc(-c2ccc(=O)n(Cc3ccc(F)cc3Cl)n2)cc1 | inconclusive: 64.9%
Cc1ccc(SCC(=O)OCC(=O)NC2CCCCCCC2)cc1 | inconclusive: 38.4%
Cc1ccc(SC(C)C(=O)Nc2ccc(S(=O)(=O)N3CCOCC3)cc2)cc1 (stereo unspecified) | inconclusive: 35.2%
CCC/C(=N\NC(=O)C1CC1)c1ccc(Br)cc1 | inconclusive: 77%
CCc1ccc(C(C(=O)NCCOC)N(C(=O)Cn2nnc3ccccc32)c2cccnc2)cc1 (stereo unspecified) | inactive: -1.1%
CC1=C(C(=O)Nc2ccccc2C(=O)NC2CCC(C)CC2)SCCO1 (stereo unspecified) | inconclusive: 48.2%
Cc1ccccc1Nc1nc(-c2cccnc2)nc2ccccc12 | inconclusive: 36.3%
COc1ccc(NC(=O)NCc2ccc3c(c2)OCO3)cc1OC | inconclusive: 40.4%
COc1cccc(NC(=O)CN(C)C(=O)c2oc3c(ccc4ccccc43)c2C)c1 | inconclusive: 33.2%
CCOC(=O)[C@H]1[C@H]2COc3ccc(Cl)cc3[C@@H]2N2C(=O)c3ccccc3NC(=O)[C@@]12C | inconclusive: 68.3%
CN(C)S(=O)(=O)c1cccc(-c2nn(-c3ccccc3)cc2/C=C(/C#N)C(=O)NCc2ccco2)c1 | inconclusive: 32.1%
COc1cc(/C=N/NC(=O)c2c(-c3c(Cl)cccc3Cl)noc2C)ccc1OCC(N)=O | inactive: -8.5%
CCCc1ccc(-c2cc(C(=O)N/N=C/c3ccc([N+](=O)[O-])o3)c3ccccc3n2)cc1 | inactive: -3.75%
CC(C)C(=O)Nc1ccc(C(=O)NNC(=O)CCc2ccccc2)cc1 | inactive: -1.31%
O=C(NC(=S)Nc1ccc(S(=O)(=O)N2CCCCC2)cc1)c1ccccc1 | inactive: 6.14%
COc1cc(/C=C(\C#N)c2nc3ccccc3[nH]2)cc(OC)c1O | inconclusive: 42.4%
Cc1cc(Br)ccc1OCC(=O)N1CCCCCC1 | inconclusive: 52.3%
CC(=O)SCC(Cc1ccccc1)C(=O)NCC(=O)OCc1ccccc1 (stereo unspecified) | inconclusive: 47.2%
CCOc1ccc(C(=O)Nc2ccc3[nH]ncc3c2)cc1 | inconclusive: 74%
CC(C)CCNC(=O)c1onc(CSc2ccc(F)c(F)c2)c1C(=O)NCCC(C)C | inconclusive: 57%
